Data as given in doi:10.1101/2021.06.03.447014.
Results are given in words; binding and its absence hold for the method and conditions named. In cells and extracts the contact can be indirect. Some binding calls cover weakened binding; strength is not graded here.

Chains of the proteins cited; added tags and fusions are not shown.
UniProt Q86VP1: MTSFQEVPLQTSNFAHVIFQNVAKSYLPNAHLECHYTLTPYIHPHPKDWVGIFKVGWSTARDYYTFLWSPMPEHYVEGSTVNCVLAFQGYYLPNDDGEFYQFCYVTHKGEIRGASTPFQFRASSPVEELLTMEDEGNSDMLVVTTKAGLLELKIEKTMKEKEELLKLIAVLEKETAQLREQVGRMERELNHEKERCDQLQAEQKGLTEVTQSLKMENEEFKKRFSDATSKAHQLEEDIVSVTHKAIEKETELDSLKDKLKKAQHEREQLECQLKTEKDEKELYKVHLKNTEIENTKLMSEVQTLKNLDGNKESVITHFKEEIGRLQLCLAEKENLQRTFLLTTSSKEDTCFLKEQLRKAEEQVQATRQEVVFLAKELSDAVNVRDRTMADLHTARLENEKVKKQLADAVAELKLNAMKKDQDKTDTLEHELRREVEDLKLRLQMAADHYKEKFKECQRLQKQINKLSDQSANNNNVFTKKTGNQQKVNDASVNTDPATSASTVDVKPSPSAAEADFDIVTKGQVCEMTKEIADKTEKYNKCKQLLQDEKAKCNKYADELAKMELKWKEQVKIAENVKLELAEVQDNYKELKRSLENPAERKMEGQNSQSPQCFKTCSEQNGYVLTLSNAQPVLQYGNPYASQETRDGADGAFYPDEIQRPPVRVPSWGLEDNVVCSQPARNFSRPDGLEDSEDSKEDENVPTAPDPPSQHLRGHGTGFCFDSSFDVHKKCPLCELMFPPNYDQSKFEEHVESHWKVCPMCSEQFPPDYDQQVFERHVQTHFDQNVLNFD
UniProt P03418: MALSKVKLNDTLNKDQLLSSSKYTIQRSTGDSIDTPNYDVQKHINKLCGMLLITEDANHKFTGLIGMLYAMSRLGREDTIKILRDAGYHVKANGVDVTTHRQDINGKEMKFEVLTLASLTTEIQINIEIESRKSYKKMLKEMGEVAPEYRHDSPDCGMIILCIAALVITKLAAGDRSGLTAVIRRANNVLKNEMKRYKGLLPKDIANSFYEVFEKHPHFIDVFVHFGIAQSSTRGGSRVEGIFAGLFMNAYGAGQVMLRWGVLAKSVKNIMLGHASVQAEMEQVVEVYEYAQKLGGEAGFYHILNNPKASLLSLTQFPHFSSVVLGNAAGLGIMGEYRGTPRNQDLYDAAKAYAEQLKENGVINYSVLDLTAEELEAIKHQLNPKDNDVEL

Target: Flag-TAX1BP1 fusion protein (UniProt Q86VP1)
Assay: co-IP

## RSV N protein expressed from plasmid p-N (from UniProt P03418 1-391)
  binding: binds
